Chains of the proteins cited; added tags and fusions are not shown. Lines headed by an entry give the natural chain unless they say otherwise; changes in a name come on top.
UniProt P18054: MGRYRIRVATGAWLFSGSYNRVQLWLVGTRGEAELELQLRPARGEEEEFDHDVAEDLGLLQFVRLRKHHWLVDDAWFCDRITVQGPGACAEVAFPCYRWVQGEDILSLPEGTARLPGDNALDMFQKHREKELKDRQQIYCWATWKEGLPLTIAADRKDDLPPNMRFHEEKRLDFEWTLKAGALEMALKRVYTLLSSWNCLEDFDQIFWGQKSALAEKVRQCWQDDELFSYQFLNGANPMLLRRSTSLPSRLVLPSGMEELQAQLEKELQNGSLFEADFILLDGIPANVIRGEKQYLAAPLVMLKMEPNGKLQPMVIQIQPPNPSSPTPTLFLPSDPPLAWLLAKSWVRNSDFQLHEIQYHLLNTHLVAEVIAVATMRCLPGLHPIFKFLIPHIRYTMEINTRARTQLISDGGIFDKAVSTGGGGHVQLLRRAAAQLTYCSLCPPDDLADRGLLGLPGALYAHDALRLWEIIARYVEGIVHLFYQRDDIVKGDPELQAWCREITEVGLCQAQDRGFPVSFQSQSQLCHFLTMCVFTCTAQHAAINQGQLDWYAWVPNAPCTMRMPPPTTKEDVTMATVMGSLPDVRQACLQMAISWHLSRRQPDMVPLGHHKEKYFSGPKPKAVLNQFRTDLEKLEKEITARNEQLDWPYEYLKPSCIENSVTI

Hit rate of the full screen: of about 580,000 compounds, about 6,100 (1.1%) were called active. This list was built around the results that the source calls inconclusive (neither active nor inactive); the mix of calls is not that of the screen. Calls follow the shape of the dose curve; as a rule, active = well fitted inhibition curve with a large enough effect; inconclusive = small, poorly fitted or top-dose-only effect, or another doubt; inactive = no such curve, though single readings can be large or run the other way. Where the call is inconclusive, the potency comes from a doubtful curve fit.
Each compound was assayed against Polyunsaturated fatty acid lipoxygenase ALOX12 (Homo sapiens) (UniProt P18054) (assay: Primary qHTS assay for inhibitors of human arachidonate 12S-lipoxygenase (ALOX12): Round 2). Settings: purified 12hLO, xylenol orange hydroperoxide absorbance; activity change, negative = inhibition: at 108 µM (top of the series) unless noted.
In short: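 Purified human 12hLO at 150 nM in 25 mM Hepes, 0.01% Triton X-100, pH 7.0, preincubated 15 min at room temperature with compound. Reaction started with 40 uM arachidonic acid, 30 min at room temperature. Hydroperoxide measured by Fe-xylenol orange, 573/405 nm absorbance ratio.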
For CC1=CC(C)C2COC(c3ccc[n+](C)c3)C1C2C (stereo not drawn), the Potency was inconclusive: 50.1 µM [inhibitor, partial curve, poor fit]. For COC(=O)c1ccoc1COC(=O)c1ccc2c(c1)CCCC2, the Potency was inconclusive: 70.8 µM [inhibitor, partial curve, poor fit]. For CC(NCc1ccc2c(c1)OCO2)c1ccccc1 (stereo not drawn), the “activity change, negative = inhibition” value was inactive: 11.9%. COc1ccc(-c2noc(-c3cccn3CC(=O)Nc3cc(C)ccc3OC)n2)cc1F was tested, and the Potency was inconclusive: 44.7 µM [inhibitor, partial curve]. With Cc1ccc(C(C)C)c2c1C(c1ccc3c(c1)OCO3)CC(=O)O2 (stereo not drawn) the Potency was inconclusive: 126 µM [inhibitor, single point]. With COc1ccc(/C=C/C(=O)C2(O)CCCCC2)cc1 the Potency was inconclusive: 14.1 µM [inhibitor, single point]. In the case of C/C(CCC(C)C)=N\Nc1nc2ccccc2[nH]1, the Potency is reported as inconclusive: 56.2 µM [inhibitor, partial curve, poor fit]. With COc1ccc(CN2C(=O)[C@@H]3C[C@@H](O)CN3C3(CN(Cc4cnc[nH]4)C3)C2=O)cc1 the “activity change, negative = inhibition” value was inactive: 56.7% [at 176 µM]. With Cc1ccc(-c2nnc(SC(C)C(=O)NCC3CCCO3)nc2-c2ccc(C)cc2)cc1 (stereo not drawn) the Potency was inconclusive: 56.2 µM [inhibitor, partial curve, poor fit]. Cn1nc(C(=O)Nc2cccc(S(=O)(=O)N3CCCCC3)c2)c2ccccc2c1=O was tested, and the “activity change, negative = inhibition” value was inactive: 1.56%. For Cc1cccn2c(=O)c(C(=O)NCCCN3CC(C)CC(C)C3)c(O)nc12 (stereo not drawn), the Potency was inconclusive: 50.1 µM [inhibitor, partial curve, poor fit]. For Cc1ccccc1C(N)=O, the “activity change, negative = inhibition” value was inactive: -0.488%. In the case of CC1CNC(Cc2ccccc2)CN1C(=O)OC(C)(C)C (stereo not drawn), the activity change, negative = inhibition is reported as inactive: 8.23% [at 12.5 µM]. In the case of Cc1noc(C)c1CN1CCN2C=C(C(=O)NCCCc3ccccc3)OC2=NC1=O, the Potency is reported as inconclusive: 112 µM [inhibitor, single point]. For CC(C)Nc1nc(NCCOc2ccccc2Cl)c2sc(-c3ccccc3)cc2n1, the Potency was inconclusive: 44.7 µM [inhibitor, partial curve, poor fit]. For Cn1c(=O)[nH]c(=O)c2c1nc(N1CCN(Cc3ccc(F)cc3)CC1)n2Cc1ccccc1, the Potency was inconclusive: 44.7 µM [inhibitor, single point]. In the case of CC(C)OCCCN1CN(S(=O)(=O)c2cccc(Cl)c2)c2nc3ccccc3nc21, the Potency is reported as inconclusive: 31.6 µM [inhibitor, partial curve, poor fit]. COc1cc(NC2CCCCC2O)c2nc(-c3ccc(Cl)cc3)ccc2c1 (stereo not drawn) was tested, and the Potency was inconclusive: 44.7 µM [inhibitor, partial curve, poor fit]. For O=C(CN1C(=O)C2CCCCN2c2ccc(C(=O)N3CCCC3)cc21)NCc1cccc(Cl)c1 (stereo not drawn), the Potency was inconclusive: 79.4 µM [inhibitor, partial curve, poor fit]. O=C1c2cccnc2C(Nc2ccc(Br)cc2)N1Cc1cccs1 (stereo not drawn) was tested, and the Potency was inconclusive: 44.7 µM [inhibitor, partial curve, poor fit]. With CN(C)c1ccc(CNC(=O)c2cc3cc(S(=O)(=O)N4CCCCC4)ccc3n2C)cc1 the “activity change, negative = inhibition” value was inactive: -0.848%. O=S(=O)(Nc1nc2ccccc2nc1Nc1cccc(Cl)c1)c1cccs1 was tested, and the Potency was inconclusive: 3.16 µM [inhibitor, full curve, poor fit]. With COC(=O)c1sccc1NC(=O)Nc1ccc(F)cc1 the Potency was inconclusive: 44.7 µM [inhibitor, partial curve, poor fit]. O=C(CSCC(=O)N1CCCCC1)Nc1nc(-c2cccs2)cs1 was tested, and the Potency was inconclusive: 100 µM [inhibitor, single point]. With Cc1ccc(Cl)c2sc(NC(=O)CS(=O)(=O)c3ccc(Cl)cc3)nc12 the Potency was inconclusive: 25.1 µM [inhibitor, partial curve]. For O=C(Nc1ccc(F)cc1)C(c1ccccc1)N1CCN(c2ccncc2)CC1 (stereo not drawn), the Potency was inconclusive: 112 µM [inhibitor, single point]. For C=CCNc1nc(C(=O)OCC(=O)c2ccc(C3CCCCC3)cc2)cs1, the “activity change, negative = inhibition” value was inactive: -29%. In the case of CCc1nc(NC(=O)C[C@H]2NC(=O)c3ccccc3NC2=O)sc1C, the “activity change, negative = inhibition” value is reported as inactive: 8.64%. For CC(C)C(OC(=O)c1nsc(Cl)c1Cl)C(=O)NCc1ccc2c(c1)OCO2 (stereo not drawn), the Potency was inconclusive: 158 µM [inhibitor, single point]. Cn1cccc1CNC(=O)Nc1ccc(Cl)c(Cl)c1 was tested, and the Potency was inconclusive: 39.8 µM [inhibitor, partial curve, poor fit]. O=C1CCN(S(=O)(=O)c2ccccc2)CCCN(C(=O)C2(c3ccccc3)CC2)CCN1 was tested, and the “activity change, negative = inhibition” value was inactive: 33.9%. For COc1ccc(NC(=O)c2csc(Cc3ccc(Cl)cc3)n2)cc1, the Potency was inconclusive: 44.7 µM [inhibitor, partial curve, poor fit]. With C(=Cc1cnnc2ccccc12)c1ccccc1 the Potency was inconclusive: 50.1 µM [inhibitor, partial curve, poor fit]. For COc1cc2ccccc2cc1C(=O)NC(=S)Nc1cccc(C(=O)O)c1, the Potency was inconclusive: 89.1 µM [inhibitor, single point]. O=C(NCc1nnnn1-c1ccccc1)Nc1ccc2c(c1)OCO2 was tested, and the Potency was inconclusive: 126 µM [inhibitor, single point]. In the case of CCOC(=O)c1cc(C)sc1NC(=O)CSC1=NCCS1, the “activity change, negative = inhibition” value is reported as inactive: 0.837%. In the case of C(=C\c1ccccc1)/CN(C/C=C/c1ccccc1)CCN1CCOCC1, the Potency is reported as inconclusive: 4.47 µM [inhibitor, full curve, poor fit]. For Cc1cccc(C2CC(c3ccccc3)=NN2c2ccc(S(N)(=O)=O)cc2)c1 (stereo not drawn), the Potency was inconclusive: 12.6 µM [inhibitor, partial curve, poor fit]. With Cc1c(C(=O)NCC2COc3ccccc3O2)oc2ccc(S(=O)(=O)N3CC(C)CC(C)C3)cc12 (stereo not drawn) the “activity change, negative = inhibition” value was inactive: 21.9%. With CNC(C)c1cnccn1 (stereo not drawn) the Potency was inconclusive: 0.732 µM [inhibitor, full curve]. With CC1Nc2ncnc(N3CCOCC3)c2N(Cc2ccc(Cl)cc2)C1=O (stereo not drawn) the Potency was inconclusive: 15.8 µM [inhibitor, full curve, poor fit]. O=C(CSc1ccccc1)N1CCN(c2ccccn2)CC1 was tested, and the “activity change, negative = inhibition” value was inactive: 0.553%. For O=C(N/N=C/c1cccs1)c1cccc(Br)c1, the “activity change, negative = inhibition” value was inactive: 27.4%. CC(=O)Oc1ccc2c(C)c(CC(=O)NCCc3ccccc3F)c(=O)oc2c1OC(C)=O was tested, and the Potency was inconclusive: 3.98 µM [inhibitor, full curve, poor fit]. For CCN(C[C@H]1N[C@@](CC)(C(=O)OC)[C@H]2C(=O)N(C)C(=O)[C@@H]12)C(=O)c1ccc(F)cc1, the “activity change, negative = inhibition” value was inactive: -26.4%. With O=S1(=O)C=CC(Sc2nc3ccccc3[nH]2)C1 (stereo not drawn) the Potency was inconclusive: 31.6 µM [inhibitor, single point]. COc1ccc(NC(=O)c2nnn(Cc3nc(-c4cc(Br)ccc4OC)oc3C)c2C)cc1 was tested, and the Potency was inconclusive: 112 µM [inhibitor, partial curve, poor fit]. For CCCNC(=O)C1(C)CCN(C(=O)c2cc(C)n(C(C)(C)C)n2)C1 (stereo not drawn), the “activity change, negative = inhibition” value was inactive: -2.36%. With Cc1ccc(-c2nc3nc(CNc4ccc(C)c(Cl)c4)cc(=O)n3[nH]2)cc1 the Potency was inconclusive: 31.6 µM [inhibitor, partial curve, poor fit]. With CCOc1cccc(C2C(C(=O)c3ccc(C)o3)=C(O)C(=O)N2CCCn2ccnc2)c1 (stereo not drawn) the “activity change, negative = inhibition” value was inactive: -6.18%. With O=C(c1ccc2c(c1)CCN2S(=O)(=O)c1ccc(Br)cc1)N1CCCC1 the Potency was inconclusive: 141 µM [inhibitor, single point]. Cc1ccc(COc2ccc(CNCCCN3CCCCCC3=O)cc2)cc1 was tested, and the Potency was inconclusive: 1.26 µM [inhibitor, full curve]. With COc1ccc(-n2nc(C3CCCN(C(=O)Nc4ccc(Cl)cc4)C3)[nH]c2=O)cc1 (stereo not drawn) the Potency was inconclusive: 17.8 µM [inhibitor, full curve]. With CSC1=N/C(=C\c2ccc(C)cc2)C(=O)S1 the Potency was inconclusive: 39.8 µM [inhibitor, partial curve]. In the case of COc1ccc(-c2[nH]c(-c3cc(OC)c4c(c3)OCO4)nc2-c2ccccc2)cc1, the “activity change, negative = inhibition” value is reported as inactive: 0.216%. In the case of Cc1oc(C)c2c(=O)cc(-c3ccc4c(c3)OCO4)cc(OC(=O)c3ccccc3Br)c12, the Potency is reported as inconclusive: 79.4 µM [inhibitor, partial curve, poor fit]. For CC1CCCC(C)N1NC(=S)Nc1ccc(OC(F)F)cc1 (stereo not drawn), the Potency was inconclusive: 44.7 µM [inhibitor, partial curve, poor fit]. In the case of Cc1cc(C)nc(NCC(O)COc2ccccc2C)n1 (stereo not drawn), the “activity change, negative = inhibition” value is reported as inactive: -10.4%. With COc1ccc(NC(=O)C2CCN(S(=O)(=O)c3ccc4c(c3)CCCC(=O)N4)CC2)cc1Cl the “activity change, negative = inhibition” value was inactive: -5.47%. With N#Cc1ccc(CN2CCC3(CCNCC3)CC2)cc1 the Potency was inconclusive: 35.5 µM [inhibitor, single point]. CCc1nnc(CC)n1N was tested, and the “activity change, negative = inhibition” value was inactive: 45%. In the case of Cc1ccc(Cn2c(-c3ccccc3)nc3ccccc32)cc1, the “activity change, negative = inhibition” value is reported as inactive: -4.68%. CC(C)NC(=O)CC1C(=O)NCCN1CC(c1ccccc1)c1ccccc1 (stereo not drawn) was tested, and the Potency was inconclusive: 50.1 µM [inhibitor, partial curve, poor fit]. In the case of COC(=O)C1=C(C)N(Cc2ccco2)C(=O)C1, the Potency is reported as inconclusive: 2.51 µM [inhibitor, full curve, poor fit]. With Cc1ccccc1CSc1nnc(C)c(=O)[nH]1 the “activity change, negative = inhibition” value was inactive: -5.14% [at 57.4 µM]. With CC(OC(=O)c1cc(=O)[nH]c2ccccc12)C(=O)N1CCCCCC1 (stereo not drawn) the “activity change, negative = inhibition” value was inactive: -7.41%. With O=C(/C=C/N1CCCCC1)c1ccc(Br)cc1 the Potency was inconclusive: 3.55 µM [inhibitor, full curve, poor fit]. In the case of CSc1ccc(CN2CCN(C/C=C/c3ccccc3)CC2)cc1, the Potency is reported as inconclusive: 0.355 µM [inhibitor, full curve].

Reference: PubChem BioAssay AID1671190 (National Center for Advancing Translational Sciences (NCATS), 2021)
% is scaled to controls: 0 for no effect and ±100 for the full control effect; potency is read from the fitted curve at half-maximal effect.
